No constants are given. Whether binding was seen depends on the method and setting. Binding seen in cells or lysates may run through a third protein. Some binding calls cover weakened binding; strength is not graded here. Where a sequence is shown, tags or fusion partners need not be part of it.
How the values were obtained:
Experiment in all cases: co-IP; 293T cells co-transfected with two tagged constructs; MG132 12 h before harvest; EBC lysis buffer; 500 μg protein with anti-FLAG M2-agarose or anti-HA agarose beads, 3 h, 4 °C; washed four times with NETN buffer; immunoblot
[1] = target: Flag-BMPRII (type II BMP receptor) (human) (UniProt Q13873)
[2] = target: Flag-BMPRIB (type IB BMP receptor) (human) (UniProt O00238)
[3] = target: Flag-BMPRIA (type IA BMP receptor) (human) (UniProt P36894)

The chains behind the UniProt entries cited, without tags or fusion partners. Residues count along the entry.
UniProt Q13873, residues 27-1038: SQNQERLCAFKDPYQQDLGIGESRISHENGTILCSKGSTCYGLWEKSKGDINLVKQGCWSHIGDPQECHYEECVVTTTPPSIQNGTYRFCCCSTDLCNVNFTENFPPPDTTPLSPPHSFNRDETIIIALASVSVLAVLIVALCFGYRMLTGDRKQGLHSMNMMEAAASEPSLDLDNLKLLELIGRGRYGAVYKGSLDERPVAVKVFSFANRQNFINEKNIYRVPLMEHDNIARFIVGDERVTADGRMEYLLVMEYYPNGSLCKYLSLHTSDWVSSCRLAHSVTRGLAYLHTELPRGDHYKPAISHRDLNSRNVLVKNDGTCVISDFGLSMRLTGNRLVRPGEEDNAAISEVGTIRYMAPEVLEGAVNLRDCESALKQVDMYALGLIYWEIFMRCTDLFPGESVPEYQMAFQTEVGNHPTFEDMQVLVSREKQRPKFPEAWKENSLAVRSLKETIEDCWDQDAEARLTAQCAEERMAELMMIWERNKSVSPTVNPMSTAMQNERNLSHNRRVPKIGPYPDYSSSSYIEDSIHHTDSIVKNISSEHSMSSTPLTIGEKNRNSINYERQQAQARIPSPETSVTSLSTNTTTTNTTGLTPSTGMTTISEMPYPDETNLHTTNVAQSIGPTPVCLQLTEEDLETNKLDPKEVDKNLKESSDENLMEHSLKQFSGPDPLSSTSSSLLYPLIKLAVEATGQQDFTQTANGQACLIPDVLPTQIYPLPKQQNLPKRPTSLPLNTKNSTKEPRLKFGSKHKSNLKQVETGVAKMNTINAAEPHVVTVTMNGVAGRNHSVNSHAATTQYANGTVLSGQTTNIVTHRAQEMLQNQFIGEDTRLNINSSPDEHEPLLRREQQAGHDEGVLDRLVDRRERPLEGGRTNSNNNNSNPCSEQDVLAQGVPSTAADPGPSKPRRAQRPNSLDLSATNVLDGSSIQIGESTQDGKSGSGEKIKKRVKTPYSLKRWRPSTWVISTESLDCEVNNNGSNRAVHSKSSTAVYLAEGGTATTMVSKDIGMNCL
UniProt O00238, residues 14-502: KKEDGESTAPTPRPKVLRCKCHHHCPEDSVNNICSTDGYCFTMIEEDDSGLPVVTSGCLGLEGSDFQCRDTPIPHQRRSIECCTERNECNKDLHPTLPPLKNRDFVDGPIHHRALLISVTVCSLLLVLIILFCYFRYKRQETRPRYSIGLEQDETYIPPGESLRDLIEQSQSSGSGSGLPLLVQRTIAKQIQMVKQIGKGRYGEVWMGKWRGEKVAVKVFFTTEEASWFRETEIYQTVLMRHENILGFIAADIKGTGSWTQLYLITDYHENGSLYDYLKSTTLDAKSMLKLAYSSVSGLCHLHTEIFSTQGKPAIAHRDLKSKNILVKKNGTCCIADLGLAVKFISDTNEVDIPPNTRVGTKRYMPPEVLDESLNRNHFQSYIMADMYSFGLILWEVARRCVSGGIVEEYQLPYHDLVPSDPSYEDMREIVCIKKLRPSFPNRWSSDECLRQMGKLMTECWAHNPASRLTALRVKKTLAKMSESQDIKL
UniProt P36894, residues 24-532: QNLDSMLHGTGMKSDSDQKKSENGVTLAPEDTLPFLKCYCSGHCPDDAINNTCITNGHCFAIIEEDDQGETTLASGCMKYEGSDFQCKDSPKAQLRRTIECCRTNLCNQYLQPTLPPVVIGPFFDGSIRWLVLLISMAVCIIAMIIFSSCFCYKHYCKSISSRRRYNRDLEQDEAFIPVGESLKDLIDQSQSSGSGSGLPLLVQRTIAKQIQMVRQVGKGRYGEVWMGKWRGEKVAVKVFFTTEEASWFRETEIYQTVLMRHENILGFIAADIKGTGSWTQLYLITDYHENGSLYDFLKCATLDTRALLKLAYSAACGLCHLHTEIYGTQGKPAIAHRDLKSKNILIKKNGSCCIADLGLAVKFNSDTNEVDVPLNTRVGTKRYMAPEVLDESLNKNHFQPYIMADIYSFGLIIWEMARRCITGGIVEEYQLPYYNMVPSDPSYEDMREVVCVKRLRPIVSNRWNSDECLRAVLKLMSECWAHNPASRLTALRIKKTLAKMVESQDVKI

binding [1]: binds
binding [2]: binds
binding [3]: binds
B1: HA-OMD (protein, UniProt Q99983 21-421)
chain: QYETYQWDEDYDQEPDDDYQTGFPFRQNVDYGVPFHQYTLGCVSECFCPTNFPSSMYCDNRKLKTIPNIPMHIQQLYLQFNEIEAVTANSFINATHLKEINLSHNKIKSQKIDYGVFAKLPNLLQLHLEHNNLEEFPFPLPKSLERLLLGYNEISKLQTNAMDGLVNLTMLDLCYNYLHDSLLKDKIFAKMEKLMQLNLCSNRLESMPPGLPSSLMYLSLENNSISSIPEKYFDKLPKLHTLRMSHNKLQDIPYNIFNLPNIVELSVGHNKLKQAFYIPRNLEHLYLQNNEIEKMNLTVMCPSIDPLHYHHLTYIRVDQNKLKEPISSYIFFCFPHIHTIYYGEQRSTNGQTIQLKTQVFRRFPDDDDESEDHDDPDNAHESPEQEGAEGHFDLHYYENQE

— PMC7862363
